PubChem BioAssay AID1259308, NCATS | 2017

Screen: 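Candidate targets for better recombinant protein yield in mammalian cells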 (primary screen)
System: human HEK293 embryonic kidney cells stably expressing firefly luciferase (HEK-CMV-Luc2-Hygro)
Reagents: single siRNA against human genes, 0.8 pmol siRNA per well
Duration: 72 h
Measured: 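Reporter luminescence and viable-cell signal on separate replicate plates, given as percent of non-targeting control and median/MAD z-scores, plus per-cell luciferase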
Direction: total luciferase, z-score and total luciferase, % of control: higher = more reporter protein produced; luciferase per cell, z-score: higher = more reporter output per viable cell
Active means: 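Active when the median/MAD z-score for overall luciferase is greater than 3; a gene was taken forward for validation with new siRNAs if at least two of its three siRNAs passed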
Meaning of the calls: active = raised luciferase; inactive = no rise
The whole screen tested about 59,000 reagents; below is an unselected part. Of all reagents, about 1,510 (2.6%) are marked active. 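Calls use total luciferase alone and ignore viability, so some active siRNAs may act by altering cell number.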 The numbers tell different reagents against one gene apart. Not all columns of the deposit are shown.

| Target gene | siRNA no. | total luciferase, z-score | total luciferase, % of control | luciferase per cell, z-score | outcome |
| --- | --- | --- | --- | --- | --- |
| TRAF3IP3 (TRAF3 interacting protein 3) | 1 | -0.189 | 78.1 | -0.502 | inactive |
| TRAF3IP3 (TRAF3 interacting protein 3) | 2 | 2.66 | 135 | 2.56 | inactive |
| TRAF3IP3 (TRAF3 interacting protein 3) | 3 | -0.594 | 70.1 | -0.265 | inactive |
| VN1R1 (vomeronasal 1 receptor 1) | 1 | 0.248 | 86.8 | -0.315 | inactive |
| VN1R1 (vomeronasal 1 receptor 1) | 2 | -1.04 | 61.2 | -1.21 | inactive |
| VN1R1 (vomeronasal 1 receptor 1) | 3 | 0.477 | 91.4 | -0.0567 | inactive |
| DDX52 (DExD-box helicase 52) | 1 | -0.949 | 63 | -1.12 | inactive |
| DDX52 (DExD-box helicase 52) | 2 | 0.934 | 100 | 0.567 | inactive |
| DDX52 (DExD-box helicase 52) | 3 | 1.59 | 114 | 1.71 | inactive |
| PCDHA7 (protocadherin alpha 7) | 1 | 0.562 | 93.1 | 0.476 | inactive |
| PCDHA7 (protocadherin alpha 7) | 2 | 1.09 | 104 | 0.516 | inactive |
| PCDHA7 (protocadherin alpha 7) | 3 | 1.69 | 116 | 0.266 | inactive |
| PNPLA4 | 1 | 1.33 | 108 | 1.93 | inactive |
| PNPLA4 | 2 | -0.126 | 79.4 | -0.00474 | inactive |
| PNPLA4 | 3 | 0.0737 | 83.4 | 1 | inactive |
| ANKMY2 (ankyrin repeat and MYND domain containing 2) | 1 | -0.956 | 62.9 | -1.06 | inactive |
| ANKMY2 (ankyrin repeat and MYND domain containing 2) | 2 | -1.6 | 50.1 | -2.1 | inactive |
| ANKMY2 (ankyrin repeat and MYND domain containing 2) | 3 | -0.742 | 67.1 | -0.828 | inactive |
| INHBB (inhibin subunit beta B) | 1 | -2.12 | 39.7 | -2.56 | inactive |
| INHBB (inhibin subunit beta B) | 2 | -0.0269 | 81.4 | 0.148 | inactive |
| INHBB (inhibin subunit beta B) | 3 | 1.81 | 118 | 1.7 | inactive |
| PAX6 (paired box 6) | 1 | 0.243 | 86.7 | 0.0422 | inactive |
| PAX6 (paired box 6) | 2 | 0.29 | 87.6 | 0.387 | inactive |
| PAX6 (paired box 6) | 3 | -1.49 | 52.3 | -1.54 | inactive |

3 neighbouring records from above, for reference:
| Target gene | siRNA no. | total luciferase, z-score | total luciferase, % of control | luciferase per cell, z-score | outcome |
| --- | --- | --- | --- | --- | --- |
| VN1R1 (vomeronasal 1 receptor 1) | 1 | 0.248 | 86.8 | -0.315 | inactive |
| VN1R1 (vomeronasal 1 receptor 1) | 2 | -1.04 | 61.2 | -1.21 | inactive |
| VN1R1 (vomeronasal 1 receptor 1) | 3 | 0.477 | 91.4 | -0.0567 | inactive |
